Values joined by “and” are separate entries in the source; they are usually repeats but may differ in a detail not shown here. Equal values may be shown once. The campaign covered roughly 350,000 compounds. About 6,000 (1.7%) were called active. Inconclusive means that the source gave no clear call. Such entries were picked first, then a sample of the others. Rule as the data show it: active = CPE inhibition above about 20% (passing the limit was not always enough); inconclusive = no clear call, values can overlap the other calls; tested in BHK-21 cells.
Experiment: protection of cells from dengue 2 killing – plate reader, single concentration, primary screen (AID 651640);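 also: 0% = median of neutral control wells and 100% = median of positive control wells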
Conditions: DENV2-infected cells, cytopathic effect rescue, at 9.99 µM, hits give high values

SMILES	CPE inhibition
COc1ccc(NC(=O)N(C)C[C@@H]2Oc3ccc(NC(=O)Nc4ccc(C(F)(F)F)cc4)cc3CC(=O)N([C@H](C)CO)C[C@@H]2C)cc1	active: 52.8%
CNc1cncc(-c2cccc(C(C)=O)c2)n1	active: 31.3%
C[C@@H]1CN([C@@H](C)CO)C(=O)c2cc(NS(=O)(=O)c3ccc(Cl)cc3)ccc2O[C@H]1CN(C)Cc1ccc(C(=O)Nc2ccccc2N)cc1	inactive: -5.45%
COc1ccc(NC(=O)N(C)C[C@@H]2OCCCC[C@H](C)Oc3ccc(NC(=O)Nc4ccccc4)cc3C(=O)N([C@H](C)CO)C[C@@H]2C)cc1	inactive: 14%
CCN(CC(=O)NCc1cccs1)C(=O)c1ccc(NS(=O)(=O)c2ccc(F)cc2)cc1	inconclusive: 32.1%
Cc1ccc(S(=O)(=O)N(C)C[C@H]2Oc3ccc(NC(=O)c4ccncc4)cc3C(=O)N([C@@H](C)CO)C[C@@H]2C)cc1	inconclusive: 30.5%
O=C(c1ccc(N2CCN(C(=O)c3ccccc3)CC2)cc1)c1cccc(F)c1	active: 65.2%
CCN1CCSc2ccc(C(=O)NCc3ccccc3F)cc21	inactive: 0.373%
C[C@@H]1CN([C@H](C)CO)S(=O)(=O)c2ccc(C3=CCCCC3)cc2O[C@H]1CN(C)Cc1cccc(C(=O)O)c1	inactive: -3.12%
Cc1ccc(S(=O)(=O)N2C[C@@H](O)COC[C@@H]3O[C@@H](CC(=O)NCC4CCCCC4)CC[C@H]32)cc1	inactive: 4.68%
COc1ccc(NC(=O)C2(C)Cc3c(-c4ccc(C(N)=O)cc4)ccnc3O2)cc1OC (stereo not given)	inconclusive: 31.7%
N[C@@H]1CC[C@@H](CCn2cc(C3CCCCC3)nn2)O[C@H]1CO	inconclusive: 31.4%
C[C@H]1CN([C@@H](C)CO)C(=O)c2cc(C#Cc3ccccc3F)cnc2O[C@H]1CN(C)C(=O)Cc1cccnc1	inactive: 2.95%
O=C1/C(=C/c2cccc(Cl)c2)SC(=S)N1CCC(=O)N1CCCCC1CCO (stereo not given)	inactive: -7.24%
C[C@@H]1CN([C@@H](C)CO)C(=O)c2cccc(NC(=O)C3CCCCC3)c2O[C@@H]1CN(C)CC1CC1	inactive: -7.49%
O=C(Nc1ccccc1F)N[C@@H]1CC[C@H](CCNC(=O)C2CCCC2)O[C@H]1CO	active: 26%
[N-]=[N+]=Nc1ccccc1C[C@@]1(C(=O)NCc2ccccc2)N=C(c2ccc(OCCCO)cc2)O[C@@H]1c1ccccc1	active: 33.8%
COc1ccc(NC(=O)Nc2ccc3c(c2)CC(=O)N([C@H](C)CO)C[C@H](C)[C@H](CN(C)S(=O)(=O)c2cn(C)cn2)O3)cc1	active: 26.7%
COc1ccc(Nc2nnc(SCC(=O)NC3CC3)s2)cc1	inconclusive: 35.7%
O=C(c1cccs1)N(Cc1cccc(F)c1)C1CCS(=O)(=O)C1 (stereo not given)	inactive: -5.44%
O=C(CNC(=O)c1cccs1)NCC(=O)OCc1ccccc1Br	inactive: 7.4%
CC1CCC(NC(=O)C(NS(=O)(=O)c2ccc(Br)cc2)C(C)C)CC1 (stereo not given)	inconclusive: 31.7%
OC[C@H]1[C@@H](c2ccc(-c3ccc(F)cc3)cc2)[C@H]2CN(Cc3ccncc3)CCCCN21	active: 28.2%
Cc1noc(C)c1S(=O)(=O)Nc1ccc2c(c1)C(=O)N([C@H](C)CO)C[C@H](C)[C@@H](CN(C)S(=O)(=O)c1ccc(F)cc1)O2	inactive: 4.58% and inactive: -10.7%

Some of the entries above in a different format:
SMILES | CPE inhibition
Cc1ccc(S(=O)(=O)N2C[C@@H](O)COC[C@@H]3O[C@@H](CC(=O)NCC4CCCCC4)CC[C@H]32)cc1 | inactive: 4.68%
COc1ccc(NC(=O)C2(C)Cc3c(-c4ccc(C(N)=O)cc4)ccnc3O2)cc1OC (stereo not given) | inconclusive: 31.7%

More records:

SMILES	CPE inhibition
CN(C)CCCN1c2ccccc2Sc2ccc(Cl)cc21	inconclusive: 21.5%
COCC#Cc1cnc2c(c1)C(=O)N([C@@H](C)CO)C[C@H](C)[C@H](CN(C)C(=O)c1cnccn1)O2	inactive: 13.5%
C[C@H](CO)N1C[C@H](C)[C@@H](CN(C)S(=O)(=O)c2ccc(F)cc2)OCCCC[C@H](C)Oc2ccc(NC(=O)Nc3ccc4c(c3)OCO4)cc2C1=O	inactive: -4.17%
COc1ccc(C(=O)Nc2ccc3nc(N4CCN(C)CC4)cc(C)c3c2)c(OC)c1	inactive: -1.1%
CSc1nc2c(cnn2-c2ccc(C)c(C)c2)c(=O)[nH]1	inactive: -5.93%
Cc1c(C(=O)NCc2ccco2)oc2ccc(Br)cc12	inconclusive: 36.1%
O=C(Nc1ccc(F)cc1)C1CCN(C(=O)c2ccc(F)cc2)CC1	inactive: -4.6%
C[C@H](CO)N1C[C@H](C)[C@H](CN(C)S(C)(=O)=O)Oc2c(NC(=O)Nc3ccc(C(F)(F)F)cc3)cccc2C1=O	inconclusive: 21.2%
Cc1ccccc1-c1nc2cc(Cl)ccc2c(=O)o1	inconclusive: 26.2%
C=CCNC(=O)[C@@H]1[C@H]2C(=O)O[C@H](c3ccccc3)[C@H](c3ccccc3)N2[C@H](c2ccc(O)cc2)[C@@]12C(=O)Nc1ccc(C#CCC(C(=O)OC)C(=O)OC)cc12	active: 31.6%
C[C@H]1CN([C@@H](C)CO)S(=O)(=O)c2ccc(C3=CCCCC3)cc2O[C@H]1CN(C)C(=O)Cc1cccnc1	inactive: 14.7%
CC(=O)CSc1nnc2cc(C)c3ccccc3n12	inconclusive: 27.8%
C[C@H](CO)N1C[C@H](C)[C@H](CN(C)CC2CCOCC2)Oc2cc(C#CC3CC3)ccc2S1(=O)=O	active: 21.7%
C[C@H](CO)N1C[C@H](C)[C@H](CN(C)S(=O)(=O)c2cccs2)Oc2ccc(NC(=O)c3ccncc3)cc2C1=O	inconclusive: 29.6%
COC(=O)c1cn(C(=O)c2ccc(C)cc2C)c2ccccc12	inactive: 4.84%
CC=Cc1ccc2n(c1=O)C[C@H]1[C@H](CO)[C@@H](C(=O)Nc3nccs3)N(Cc3ccccc3F)[C@@H]21 (mixture of isomers)	inconclusive: 47.3%
C[C@@H]1CN([C@@H](C)CO)C(=O)c2cc(C#C[C@@H](C)O)cnc2O[C@@H]1CN(C)C(=O)c1ccccc1	inconclusive: 20.8%
CN1C(=O)c2cc(NC(=O)c3cccs3)ccc2OC[C@@H]2O[C@@H](CC(=O)NCCN3CCCCC3)CC[C@H]21	active: 40.5%
COC(=O)[C@]12CCCCC=C1N(Cc1ccc3c(c1)OCO3)C(=O)[C@H](CC(=O)NCCCCc1ccccc1)C2	inconclusive: 47.5%
O=C(Nc1ccc2c(c1)OCO2)c1cccc(S(=O)(=O)N2CCOCC2)c1	inconclusive: 30.8%
COC(=O)[C@@]1(CCS(=O)(=O)c2ccccc2)COC(c2ccc(OCCCO)cc2)=N1	inactive: -14.2%
Cn1c(N)c(C(=O)COC(=O)/C=C/c2ccc(Cl)cc2Cl)c(=O)n(C)c1=O	inactive: -7.07%
N#Cc1c(N)nc2c(c1N)CC(=O)N2c1ccc(Cl)cc1	inactive: -2.03%
CS(=O)(=O)c1ccc(Cl)c(NC(=O)CSc2n[nH]c(N)n2)c1	inconclusive: 24%

2 of the compounds above, as comma-separated lines.
SMILES,CPE inhibition
Cc1ccc(S(=O)(=O)N2C[C@@H](O)COC[C@@H]3O[C@@H](CC(=O)NCC4CCCCC4)CC[C@H]32)cc1,inactive: 4.68%
C[C@H]1CN([C@@H](C)CO)C(=O)c2cc(C#Cc3ccccc3F)cnc2O[C@H]1CN(C)C(=O)Cc1cccnc1,inactive: 2.95%

More compounds.

SMILES	CPE inhibition
Cc1cc(=O)n2c(n1)NC(Nc1cccc(C)c1C)=NC2c1ccccc1 (stereo not given)	inconclusive: 44.5%
O=C(Cc1ccccc1)N1C[C@@H]2[C@H](c3ccccc31)[C@@H](CO)N2C(=O)C1CCCCC1	active: 24.2%
CCCNC(=O)N1CC2(CN(CC3CCOCC3)C2)c2c(n(C)c3cc(OC)ccc23)[C@H]1CO	inconclusive: 20.2%
COc1ccc(N2c3ccccc3CN(Cc3ccccc3)CC2Cc2cc(OC)c(OC)c(OC)c2)cc1 (stereo not given)	inactive: -6.95%
CCC1CCCCN1C(=S)NC(=O)c1cccs1 (stereo not given)	inconclusive: 20.3%
O=C(Nc1ccc(C(F)(F)F)cc1)N[C@@H]1CC[C@@H](CC(=O)N2CCCCC2)O[C@H]1CO	inactive: 2.52%
CCCS(=O)(=O)NC(=O)C1(C)CCN(C(=O)c2cc(-c3cccs3)oc2C)C1 (stereo not given)	inconclusive: 44.7%
CCOc1cc(C2C(C(C)=O)=C(O)C(=O)N2CCc2c[nH]c3ccccc23)ccc1O (stereo not given)	inconclusive: 66.7%
CCC1=Nc2cc(C(=O)NCCN3CCCC3)ccc2Sc2ccc(C)cc21	inconclusive: 31.9%
C/C(=N/NC(=O)Cc1ccccc1)c1ccc(C)s1	inconclusive: 23.2%
C[C@@H]1CCCCO[C@@H](CN(C)CC2CCCCC2)[C@@H](C)CN([C@@H](C)CO)C(=O)c2cc(NC(=O)C3CCCCC3)ccc2O1	inactive: 4.21%
C[C@H](CO)N1C[C@H](C)[C@H](CN(C)C(=O)Nc2ccc(C(F)(F)F)cc2)Oc2c(NC(=O)Nc3ccc4c(c3)OCO4)cccc2C1=O	inactive: 16.9%
CC(Cc1ccccc1)C(=O)NCc1ccccn1 (stereo not given)	inconclusive: 22%
Cn1c(N)c(C(=O)N2CCN(c3ccccc3)CC2)c(=O)n(C)c1=O	active: 36.8%
N#CC1C(=O)Nc2cccnc21 (stereo not given)	inconclusive: 27.4%
Cc1cccc(-c2ccc([C@H]3[C@@H](CO)N4CCCCN(S(=O)(=O)c5cccc(C)c5)C[C@H]34)cc2)c1	active: 55.5%
CCc1nc2ccc(C(=O)N(CC)CCN(C)C)cn2c1N(CC)CCOC	inconclusive: 36.5%
COc1cccc(CN2[C@H](CO)[C@H]3c4ccccc4N(C(=O)CC(F)(F)F)C[C@H]32)c1	inconclusive: 71.7%
C[C@H]1CN([C@@H](C)CO)C(=O)c2cc(NC(=O)C3CC3)ccc2O[C@H]1CN(C)S(=O)(=O)c1ccccc1	inconclusive: 26.8%
CN(C)CC(=O)N[C@@H]1CC[C@H](CCNC(=O)C2CCCC2)O[C@@H]1CO	active: 53.6%
Cc1ccccc1C(=O)N1CCC(C(=O)Nc2cc(C(F)(F)F)ccc2N2CCCC2)CC1	inconclusive: 61%
C#CCCC/C(=C\C(=O)N(C)[C@H](C(=O)N(C)[C@H](C(=O)N(C)[C@H](C(=O)N(C)[C@H](C(N)=O)C(C)C)C(C)C)C(C)C)C(C)C)OC	inconclusive: 38.3%

Source: PubChem BioAssay AID651640 (Broad Institute, 2012)
